Values from PubChem BioAssay AID504784 (Drosophila RNAi Screening Center, 2011).

- Assay: 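Genome-wide knock-down for genes giving too much or too little stored lipid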 (primary screen)
- Cells: Drosophila Kc167 embryonic cells
- Knock-down reagent: long dsRNA against Drosophila genes, about 250 ng dsRNA per well
- Duration: 4 days
- Treatment: cells fed 400 µM oleic acid bound to BSA
- Read-out: 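Microscope images give a droplet-to-nucleus area ratio, taken as log and converted to a screen-wide B-score; higher values mean greater lipid storage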
- Reading the numbers: droplet/nuclear area B-score: higher = more stored lipid (overstorage)
The deposit covers about 17,000 reagents; below is an unselected part of those with a known target gene and a result. 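Each column is one replicate's B-score; the combined score over replicates was not deposited, so single values may mislead.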 Reagents against one gene are numbered here. No sequences are given here.

CG14262 → droplet/nuclear area B-score, replicate 1 = 0.125; droplet/nuclear area B-score, replicate 2 = 1.45
CG33306 → droplet/nuclear area B-score, replicate 1 = -0.0555; droplet/nuclear area B-score, replicate 2 = 0.183
CG31103 → droplet/nuclear area B-score, replicate 1 = 1.48; droplet/nuclear area B-score, replicate 2 = 0.247
CG11562 → droplet/nuclear area B-score, replicate 1 = -0.934; droplet/nuclear area B-score, replicate 2 = 0.198
LpR2 (Lipophorin receptor 2) #1 → droplet/nuclear area B-score, replicate 1 = -0.35; droplet/nuclear area B-score, replicate 2 = 1.75
LpR2 (Lipophorin receptor 2) #2 → droplet/nuclear area B-score, replicate 1 = -0.918; droplet/nuclear area B-score, replicate 2 = -0.0978
LpR2 (Lipophorin receptor 2) #3 → droplet/nuclear area B-score, replicate 1 = -0.465
LpR2 (Lipophorin receptor 2) #4 → droplet/nuclear area B-score, replicate 1 = 1.25; droplet/nuclear area B-score, replicate 2 = 0.427
CG4271 → droplet/nuclear area B-score, replicate 1 = 0.632; droplet/nuclear area B-score, replicate 2 = -0.387
CG7137 → droplet/nuclear area B-score, replicate 2 = 0.189
Ude (Uracil-DNA degrading factor) → droplet/nuclear area B-score, replicate 1 = 0.0306; droplet/nuclear area B-score, replicate 2 = 0.962
CG13748 → droplet/nuclear area B-score, replicate 1 = -0.379; droplet/nuclear area B-score, replicate 2 = 0.235
Lztr1 (Leucine zipper like transcription regulator 1) #1 → droplet/nuclear area B-score, replicate 1 = -0.456; droplet/nuclear area B-score, replicate 2 = -0.343
Lztr1 (Leucine zipper like transcription regulator 1) #2 → droplet/nuclear area B-score, replicate 1 = 0.743; droplet/nuclear area B-score, replicate 2 = -0.265
Rab3-GEF (Rab3 GDP-GTP exchange factor) #1 → droplet/nuclear area B-score, replicate 1 = 0.573; droplet/nuclear area B-score, replicate 2 = 1.44
Rab3-GEF (Rab3 GDP-GTP exchange factor) #2 → droplet/nuclear area B-score, replicate 1 = 1.7; droplet/nuclear area B-score, replicate 2 = 0.903
Rab3-GEF (Rab3 GDP-GTP exchange factor) #3 → droplet/nuclear area B-score, replicate 1 = -0.734; droplet/nuclear area B-score, replicate 2 = 1.42
AGO2 (Argonaute 2) #1 → droplet/nuclear area B-score, replicate 1 = 0.385; droplet/nuclear area B-score, replicate 2 = -0.128
AGO2 (Argonaute 2) #2 → droplet/nuclear area B-score, replicate 1 = -0.082; droplet/nuclear area B-score, replicate 2 = 0.694; droplet/nuclear area B-score, replicate 3 = 1.06
CG7523 → droplet/nuclear area B-score, replicate 1 = -1.25; droplet/nuclear area B-score, replicate 2 = -1.13
CG31262 → droplet/nuclear area B-score, replicate 1 = 0.00933; droplet/nuclear area B-score, replicate 2 = -0.00446
Moca-cyp → droplet/nuclear area B-score, replicate 1 = -1.55; droplet/nuclear area B-score, replicate 2 = 1.01
SmD1 (Small ribonucleoprotein particle protein SmD1) → droplet/nuclear area B-score, replicate 1 = -4.36; droplet/nuclear area B-score, replicate 2 = -3.3
Tsen54 (tRNA splicing endonuclease subunit 54) → droplet/nuclear area B-score, replicate 1 = -2.6; droplet/nuclear area B-score, replicate 2 = -1.07
polo #1 → droplet/nuclear area B-score, replicate 1 = 1.42; droplet/nuclear area B-score, replicate 2 = 0.00253; droplet/nuclear area B-score, replicate 3 = 0.0057
polo #2 → droplet/nuclear area B-score, replicate 1 = 4.05; droplet/nuclear area B-score, replicate 2 = -0.647
CG14937 → droplet/nuclear area B-score, replicate 1 = 2.42; droplet/nuclear area B-score, replicate 2 = 1.96
mth (methuselah) → droplet/nuclear area B-score, replicate 1 = -0.305; droplet/nuclear area B-score, replicate 2 = -0.855
CG6614 → droplet/nuclear area B-score, replicate 1 = 0.558; droplet/nuclear area B-score, replicate 2 = 0.702
ND-15 (NADH dehydrogenase (ubiquinone) 15 kDa subunit) → droplet/nuclear area B-score, replicate 1 = 1.78; droplet/nuclear area B-score, replicate 2 = 4.66
ubl (ubiquitin like) → droplet/nuclear area B-score, replicate 1 = -0.0442; droplet/nuclear area B-score, replicate 2 = 0.575
CG9981 → droplet/nuclear area B-score, replicate 1 = 0.0284; droplet/nuclear area B-score, replicate 2 = -0.0435
CCHa2 (CCHamide-2) → droplet/nuclear area B-score, replicate 1 = 1.44; droplet/nuclear area B-score, replicate 2 = 2.93; droplet/nuclear area B-score, replicate 3 = 1.98
sds22 → droplet/nuclear area B-score, replicate 1 = 0.0212; droplet/nuclear area B-score, replicate 2 = 0.77
CG6006 #1 → droplet/nuclear area B-score, replicate 1 = 0.285; droplet/nuclear area B-score, replicate 2 = -1.08
CG6006 #2 → droplet/nuclear area B-score, replicate 1 = -0.533; droplet/nuclear area B-score, replicate 2 = 0.355
Nep4 (Neprilysin 4) → droplet/nuclear area B-score, replicate 1 = -0.178; droplet/nuclear area B-score, replicate 2 = 0.865
CG33007 (retired record) → droplet/nuclear area B-score, replicate 1 = -0.287; droplet/nuclear area B-score, replicate 2 = -1.96
TkR86C (Tachykinin-like receptor at 86C) → droplet/nuclear area B-score, replicate 1 = -1.04; droplet/nuclear area B-score, replicate 2 = 3.4
CG15124 → droplet/nuclear area B-score, replicate 1 = 0.291; droplet/nuclear area B-score, replicate 2 = -0.2
CG18666 → droplet/nuclear area B-score, replicate 1 = 0.0348; droplet/nuclear area B-score, replicate 2 = -1
BigH1 (Histone H1 variant BigH1) → droplet/nuclear area B-score, replicate 1 = 0.0175; droplet/nuclear area B-score, replicate 2 = 9.48
CG12093 → droplet/nuclear area B-score, replicate 1 = -0.132; droplet/nuclear area B-score, replicate 2 = -0.843
CG32023 → droplet/nuclear area B-score, replicate 1 = -0.0404; droplet/nuclear area B-score, replicate 2 = -1.05
CG5068 → droplet/nuclear area B-score, replicate 1 = -0.0532; droplet/nuclear area B-score, replicate 2 = 2.95
hyx (hyrax) → droplet/nuclear area B-score, replicate 1 = 0.0147; droplet/nuclear area B-score, replicate 2 = -1.13
Mitf #1 → droplet/nuclear area B-score, replicate 1 = -0.175; droplet/nuclear area B-score, replicate 2 = -0.325
Mitf #2 → droplet/nuclear area B-score, replicate 1 = 1.16; droplet/nuclear area B-score, replicate 2 = -0.728
tyf (twenty-four) → droplet/nuclear area B-score, replicate 1 = -0.71; droplet/nuclear area B-score, replicate 2 = -1.36
CG4101 → droplet/nuclear area B-score, replicate 1 = -0.356; droplet/nuclear area B-score, replicate 2 = 0.701
Calr (Calreticulin) → droplet/nuclear area B-score, replicate 1 = 3.83; droplet/nuclear area B-score, replicate 2 = 0.863
